Results are given in words; binding and its absence hold for the method and conditions named. Binding seen in cells or lysates may run through a third protein. Some binding calls cover weakened binding; strength is not graded here. Where a sequence is shown, tags or fusion partners need not be part of it. Values belong to the molecule of their own block, whether it stands above or below them.
Legend:
[1] = target: T1, HA-tagged TMC6 (mouse) (UniProt Q7TN60); assay: co-IP; reverse IP with antibody against HA from lysate of ND7/23 cells overexpressing HA-TMC6 and FLAG-tagged Gαq; immunoblot against FLAG
T1 sequence: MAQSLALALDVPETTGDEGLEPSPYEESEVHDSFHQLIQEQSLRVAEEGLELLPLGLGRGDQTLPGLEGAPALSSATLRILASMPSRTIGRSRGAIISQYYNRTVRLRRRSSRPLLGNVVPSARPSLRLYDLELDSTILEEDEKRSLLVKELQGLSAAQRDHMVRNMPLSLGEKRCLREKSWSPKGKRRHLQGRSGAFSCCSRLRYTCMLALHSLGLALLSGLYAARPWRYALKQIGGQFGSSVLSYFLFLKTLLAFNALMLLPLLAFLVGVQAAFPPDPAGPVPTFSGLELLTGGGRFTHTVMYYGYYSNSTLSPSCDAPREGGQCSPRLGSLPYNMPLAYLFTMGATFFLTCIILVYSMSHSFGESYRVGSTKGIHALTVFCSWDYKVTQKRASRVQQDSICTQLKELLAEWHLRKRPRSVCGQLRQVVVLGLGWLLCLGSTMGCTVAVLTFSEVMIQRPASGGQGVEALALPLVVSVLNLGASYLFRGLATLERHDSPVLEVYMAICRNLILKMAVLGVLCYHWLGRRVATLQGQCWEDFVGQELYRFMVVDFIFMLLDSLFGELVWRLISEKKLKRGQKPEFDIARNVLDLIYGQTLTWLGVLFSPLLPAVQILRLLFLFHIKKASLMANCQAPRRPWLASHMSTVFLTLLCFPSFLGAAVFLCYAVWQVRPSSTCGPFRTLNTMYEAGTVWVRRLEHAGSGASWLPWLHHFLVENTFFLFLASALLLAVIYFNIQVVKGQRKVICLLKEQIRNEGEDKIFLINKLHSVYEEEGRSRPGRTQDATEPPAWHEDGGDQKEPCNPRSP

Sequences of proteins named here, by UniProt entry; tags and fusion partners are left off.
UniProt P21279: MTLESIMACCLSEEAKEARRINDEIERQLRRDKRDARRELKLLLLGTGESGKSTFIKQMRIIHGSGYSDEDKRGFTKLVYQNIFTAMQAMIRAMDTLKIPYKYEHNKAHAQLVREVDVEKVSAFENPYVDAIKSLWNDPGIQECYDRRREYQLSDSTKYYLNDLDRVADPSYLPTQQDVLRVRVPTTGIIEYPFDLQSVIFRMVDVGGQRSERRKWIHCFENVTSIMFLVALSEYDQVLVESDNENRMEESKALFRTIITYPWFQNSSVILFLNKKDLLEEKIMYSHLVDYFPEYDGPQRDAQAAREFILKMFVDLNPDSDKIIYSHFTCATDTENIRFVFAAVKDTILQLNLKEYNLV

[2] = target: FLAG-tagged Gαq (UniProt P21279); assay: co-IP; IP with antibody against FLAG from lysate of ND7/23 cells overexpressing Gαq-FLAG, HA-TMC6 and the blocking peptide amino acids 780–810 (competition)
[3] = target: FLAG-tagged Gαq (UniProt P21279); assay: co-IP; IP with antibody against FLAG from lysate of ND7/23 cells overexpressing Gαq-FLAG and HA-TMC6 or a deletion form; immunoblot against HA

binding [1]: binds
Molecule: FLAG-tagged Gαq (from UniProt P21279 1-359)

binding [2]: binds | binding [3]: binds
B1: HA-tagged TMC6 (protein, UniProt Q7TN60 1-810)
chain: T1 sequence

binding [2]: binds
B2: polypeptide amino acids 780–810 of TMC6 (peptide, UniProt Q7TN60 780-810)
chain: SRPGRTQDATEPPAWHEDGGDQKEPCNPRSP
